In the supplement of paper PMC3334620:
Over roughly 33,000 sequences, “E-score (-0.5 to 0.5)” has its median near -0.016; the highest 2% begin near 0.3. The list shows a part of the results.

These sequences were tested against T1, Yer184c (UniProt P39961) (assay: PBM E-score (8-mer binding enrichment) (E-score (-0.5 to 0.5)); higher = stronger / more preferred TF binding). Conditions: protein concentration: 100 nM; construct: GST-full length.
T1 sequence: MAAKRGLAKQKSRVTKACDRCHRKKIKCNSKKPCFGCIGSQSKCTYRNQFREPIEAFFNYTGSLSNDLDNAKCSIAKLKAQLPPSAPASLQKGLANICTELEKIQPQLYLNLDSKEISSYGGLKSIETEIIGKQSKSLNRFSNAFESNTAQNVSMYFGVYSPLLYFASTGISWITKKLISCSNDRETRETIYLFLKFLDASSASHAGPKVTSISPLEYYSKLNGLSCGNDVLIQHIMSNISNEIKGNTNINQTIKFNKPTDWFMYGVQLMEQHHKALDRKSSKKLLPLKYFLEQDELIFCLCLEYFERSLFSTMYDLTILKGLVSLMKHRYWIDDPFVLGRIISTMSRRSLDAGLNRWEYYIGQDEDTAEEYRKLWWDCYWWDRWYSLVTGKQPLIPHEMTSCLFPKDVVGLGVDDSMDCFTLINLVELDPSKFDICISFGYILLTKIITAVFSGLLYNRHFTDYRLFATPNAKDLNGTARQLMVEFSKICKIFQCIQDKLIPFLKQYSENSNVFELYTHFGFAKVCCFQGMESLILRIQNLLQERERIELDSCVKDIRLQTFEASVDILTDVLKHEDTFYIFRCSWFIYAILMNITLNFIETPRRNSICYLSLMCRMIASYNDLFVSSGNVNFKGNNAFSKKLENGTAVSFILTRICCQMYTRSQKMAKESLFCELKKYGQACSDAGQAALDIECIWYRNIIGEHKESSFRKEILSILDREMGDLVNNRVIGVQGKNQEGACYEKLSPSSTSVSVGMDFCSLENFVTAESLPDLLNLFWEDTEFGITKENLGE
In short: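 Universal all-10-mer Agilent arrays, fresh or stripped once, were converted to double-stranded form by primer extension. GST-tagged yeast transcription factors from PURExpress in vitro transcription/translation, full-length or DNA-binding domain only, were applied at about 100-200 nM and detected with fluorescent anti-GST. After masliner normalisation, the Universal PBM Analysis Suite scored each ungapped eight-base word together with its reverse complement by E-score.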

Sequence	PBM E-score
AGCAGACA	-0.168
CACAAAGG	-0.113
ACGGACAT	0.235
CCACAGCC	-0.123
CCCAGTCC	-0.167
CCCACTGA	-0.149
GTGACATA	0.121
CTCCAGAG	-0.154
CCTCCTAG	-0.125
AGGACTGG	-0.178
AATTCAAA	0.116
ACCAAGGG	-0.121
GGGTGTAA	-0.0368
ATAGTCAA	0.0249
GGTCGCGA	0.0817
AGGGTGCC	-0.26
CAGCTCGG	0.235
GTATCGGA	0.208
ACACGAAT	0.122
AAGCCAGA	-0.0741
AACCTAAT	0.0654
ACTACCGA	-0.0592
ATTCCGCG	0.242
AATATGAA	0.0316
CTGCCTGA	-0.0119

Sequence	PBM E-score
CACGGAAA	0.345
ATCACAAT	0.0634
TAGATGGA	-0.162
GAGTCCGC	-0.0485
GGACGCAC	-0.128
GTAGAATA	0.112
TCCACGCA	-0.0144
CTAGCAAC	-0.00621
ACGTGACG	-0.126
AAATAAGG	0.0691
AGCTCCAC	-0.247
AGGAAGAC	-0.203
ACACGATG	-0.156
GGTATAAC	-0.069
GCATTAAC	0.095
ATCGGCGC	0.275
ACGCCTCA	-0.0245
AGTTTTAG	0.0123
GTTACTTA	0.13
GCGCCCGA	0.145
AAGACGCA	-0.0665
CACCAGAG	-0.239
TAGCGACA	-0.00465
ATCCTAAA	-0.068
GGACATGA	-0.0116

Sequence	PBM E-score
ACAACTAA	0.182
ACTGACAA	0.129
GCAAGTCA	-0.0698
ACCTAATA	0.117
TCGGGGCA	-0.0736
TCATCGGA	0.259
GTGCTTAA	0.116
CCAGAAGG	0.0416
GACCTCCC	-0.374
ACATTTTC	0.0488
TAGGATAA	0.00381
CGCTAACC	0.00582
ATCGTCAC	-0.13
AACCTGAC	-0.175
AGGACTCA	-0.24
AGACCTCA	-0.143
ATGGCTCA	-0.167
AATGTCCT	-0.151
AGGTACTC	-0.0632
CACGATCA	0.0142
CGCATGCC	0.148
ACCTGCGG	-0.0065
AGCTGAAA	0.178
AGTCGGCG	0.138
GAAGTTTA	0.229

Shown field by field: entries from further up.
AATTCAAA
  PBM E-score: 0.116
ATTCCGCG
  PBM E-score: 0.242
AGCTCCAC
  PBM E-score: -0.247
GTGCTTAA
  PBM E-score: 0.116

Additional records

Sequence	PBM E-score
ACTCGTGC	-0.145
GAGGGATC	-0.171
CCCAACGA	-0.06
ACCTTAGT	-0.077
GACGACTC	-0.201
TAAGCAGA	-0.101
CCAACGCA	-0.0422
CGACATAA	0.109
ACCGATGG	0.0508
AGCTATAC	-0.0923
GAAGTTGC	-0.153
CTCGCAGC	-0.0811
GTAGGCCA	-0.017
AGATGCTC	-0.00305
CAGTGGCG	-0.14
ACGTGTTG	0.0028
CGTCCCAG	-0.169
GCGTCCCC	-0.249
CATGGTGA	-0.0876
AGGGTGGC	-0.163
CGCTCGAG	0.0363
ACTCGCCT	-0.147
CTACTCCA	-0.24
GACTGAGA	0.0369
ACCGACCT	-0.0856

Sequence	PBM E-score
CTCCACGC	-0.169
CCCTAGTA	-0.0683
GATAACAA	0.261
GAAGACTA	0.0608
GATGGCCC	-0.186
GCTACTTA	-0.201
ACTAACGG	0.132
ATGGCGTA	-0.111
CCAATGTC	-0.109
ACCGGACC	0.29
CATGGCTC	-0.151
GGTCAAAA	-0.00015
CCCAGGGC	-0.298
CATGTGAA	-0.0476
GGAATGTA	0.123
GACTCTGC	-0.0367
CTACCTAA	0.0605
AGCTGGAC	-0.0983
AAAACTAC	0.246
AACAGGAT	-0.0981
GGGCCAAC	-0.0886
CTTTGGCA	-0.213
AAAAGGAA	0.23
AGTGGTTG	0.0216
ACGGCGTG	-0.0116

Sequence	PBM E-score
CGAGTTTC	-0.00564
GAATAGCC	-0.0116
GAAGGACC	-0.0391
ATGAACAA	0.154
AACAGCGA	-0.129
GAGGCTAC	-0.152
AATAGGCA	0.0624
GGACGCGA	-0.178
AGCTGTAT	-0.101
ACCTTACC	-0.0169
TAGCAACA	0.062
CCGCTAGC	-0.245
AATGCCCG	-0.121
AAGCACCA	-0.224
ACCAATAG	-0.149
CCTCTGCC	-0.303
AGTGCTTG	-0.109
CGAATGTC	-0.0151
ATTTGCCG	0.306
AACATACG	0.129
CTCTCCTA	-0.0322
TCCATGCA	0.122
ACTCTACA	-0.143
AGCACGCT	-0.23
CACTCCGA	0.0993

Retrieved one by one from above:
Sequence	PBM E-score
AACATACG	0.129
AGCACGCT	-0.23
GAATAGCC	-0.0116
AAGCACCA	-0.224
AGTGCTTG	-0.109
AATAGGCA	0.0624

(next part)

Sequence	PBM E-score
ACTGTAGG	0.0897
ACGAAGGA	0.0446
AAAGGTCG	-0.226
CTTACGTC	-0.178
TCATTAAA	0.343
TCTTAAAA	0.0893
GTTATGGA	0.0672
CTTAGTAA	0.148
AGGCGACC	-0.25
GATCATCA	-0.0428
ACAGAAGT	0.072
TCACCTGA	-0.148
ATCGATCA	-0.0651
CCGTAAAC	0.203
CCATGGAC	-0.163
GCCAGCCC	-0.338
CCGCAGGA	-0.0578
CGAGCCTC	-0.218
ACGCCTCT	-0.32
CGCCGATA	0.257
ACCGAAGC	0.1
ATCGCGCG	0.183
ACGAAGGC	-0.285
GGCCTGAC	-0.0184
ACATTAGG	-0.148

Sequence	PBM E-score
CACTGGAA	-0.118
GACAAGCA	-0.0476
AAGCTCGT	-0.0959
ATTCTTTC	0.0708
GAGCGAGA	0.177
ACTGGAAA	0.0217
ATGTGGGA	-0.189
AATTTGCG	0.0284
GCTGTACA	-0.102
GAACATTC	0.102
GAGGCGAA	0.0342
CTTGACAA	0.152
CGAGGGTC	-0.129
ATGGCCAA	-0.125
GTGTAATA	0.0205
GCGGGCCA	-0.21
AGATTTAG	0.0688
TACATTAA	0.249
CTCTTGTC	0.13
AATTATCC	0.116
ACATGGTA	-0.173
ATCAAAGG	-0.073
CAAGGGCA	-0.327
ACGCCATC	-0.0413
ATGAGACC	-0.15

Sequence	PBM E-score
CCACCGAA	0.104
ATTCATGA	0.0414
GTACAACA	0.225
GTACACAA	-0.0116
GCAGGAAC	-0.0354
CTATGACA	-0.101
ATACATGC	-0.116
CGCGTTCA	0.165
CATGCCGG	0.366
CGTCTTGA	0.239
AACAGAAA	0.172
ACGATGGC	-0.0929
TACTGGGA	0.094
TGTGTTAA	0.143
AGCGAGGG	-0.263
AGTGCGAC	-0.13
CGAAAGAA	-0.0158
ACCCGAGG	-0.00171
CCATTATA	0.115
ATGGTTTA	0.0235
CTCGTTGC	0.136
ACATTTAT	-0.208
GCTCTTTA	-0.0543
ACGGACTC	0.0365
ACTGAGAA	0.0324

Exported with bars between the fields: entries from further up
Sequence | PBM E-score
ATTCATGA | 0.0414
GTACAACA | 0.225

Further entries

Sequence	PBM E-score
GCAACCCC	-0.228
ATGACGAG	-0.0653
CGGGATTA	0.262
ATAAATGG	-0.0498
ATCGTTGA	0.0875
AGCATTAG	0.0604
ATCGTCAA	0.0976
CACCTTAG	-0.164
CTCTCTGC	-0.138
ACCCACGT	-0.121
AAACGGTA	0.163
CACTCCCG	0.0838
CGGACAAG	0.234
CTAAGAAG	0.158
CAAACCCA	0.0411
GAGCGACC	0.0181
GAATAGTA	0.187
CGTATCCA	-0.0949
AGTAAATC	-0.0252
AACACGCC	-0.167
GGATAAGA	0.0512
GAAATGTC	0.0129
AAGATTGA	-0.0568
TATCTGCA	-0.0584
ACCTCCCG	-0.14

Sequence	PBM E-score
AATCCGGT	0.36
CAGGGGAC	-0.253
CGATGGCG	-0.0401
TACAAGGA	0.0489
GGCTCCTA	-0.11
AAATTCTT	0.0207
CTTCACCC	0.158
CACTGGGC	-0.185
GCTAATCC	0.0566
CTGTAAGC	-0.0673
CAAGATCG	0.146
CTGTGGAA	0.111
GGTGCATA	-0.0408
GCGGACCA	0.243
TTGAGAAA	0.0843
ATGTAATA	0.251
CTTGAACA	0.0822
CAAGAGCC	0.108
AAGCCGGA	0.411
AACGTCGC	0.00887
ATTGGCAG	-0.137
CAGCAAAG	0.0136
TATCTTGA	0.0213
ACGCTGCC	-0.12
AAACAATA	0.282

Sequence	PBM E-score
GTCTCGAA	-0.169
AGTCTCTC	-0.198
GAAACCAC	-0.0782
GTTACGAA	0.209
ACGTGCAA	-0.0364
CAGCCCGC	-0.246
GACTAGAC	-0.115
CAAACACG	0.051
GCCGTTCC	0.0294
TGCGCTAA	0.0232
CAGTGGTC	-0.0866
CCGGTGCG	0.14
GGTCCTGA	0.0295
GGTAACAC	-0.00923
CCTGGTAG	-0.314
CAGTCACG	-0.154
CCTTATAC	-0.00095
CACACGCA	-0.172
CACACCGG	0.0348
CCTAAGCC	-0.148
CCCGAACC	0.0911
CAAACCAG	-0.0823
ACTCCACT	-0.16
CTGCCAGA	-0.0616
ACAGCTTG	-0.0221

Sequence	PBM E-score
TAATGCGA	-0.019
CTTTCACC	-0.0811
CGCAGCTA	0.0423
ATATACCG	0.235
AGTACACC	-0.133
AAATATTT	0.207
CTGCTGGC	-0.188
ACCGTCCG	0.151
GACACTCA	-0.0521
AATTTTCA	0.172
CCACTCTA	-0.152
AATGAGTG	0.0619
ATGCGGTC	0.182
CTGATCGC	-0.0268
AAGAATCC	0.157
CCATGCGA	-0.0128
CCCGCCCC	0.102
ATCACTAA	0.117
AAGGATGC	-0.111
CCTGCTAG	-0.216
AGGCATTC	-0.156
ACATCTCG	0.00537
GCTGACTA	-0.161
GACGCAAA	0.0185
TAGCTTAA	0.0932

Sequence	PBM E-score
ACTATGCA	-0.111
GAAGCGCC	0.192
TAATATAA	0.339
ACGCCCAC	-0.121
GGACTACC	-0.123
AAGATGTG	0.00026
GGTTGTGA	0.084
TTAGACAA	0.0737
GGCGTCTA	-0.00727
AAGAAAAA	0.276
ATGACCTG	-0.0827
GCGCTGAA	-0.0402
ACGCACCG	-0.0652
CGTTGCGA	-0.118
CCTCAATA	-0.202
CTACTGAG	-0.0172
TCCAAAGA	0.116
ATTACTGA	-0.093
GAGTACCA	0.052
